# Laboratory results published in US7157250B2, “Glutamic acid receptor and utilization thereof” (Ajinomoto Co., Inc., priority 2004, dated 2007).
# By UniProt entry, the sequences of proteins in these tests, tags left out. Where a name states a change or a piece, a line headed by the entry shows the natural chain unless it says otherwise. Chains listed by the source or under a name are the forms on record and can include a tag or linker.
# UniProt P31423, with tags, fused parts or gaps: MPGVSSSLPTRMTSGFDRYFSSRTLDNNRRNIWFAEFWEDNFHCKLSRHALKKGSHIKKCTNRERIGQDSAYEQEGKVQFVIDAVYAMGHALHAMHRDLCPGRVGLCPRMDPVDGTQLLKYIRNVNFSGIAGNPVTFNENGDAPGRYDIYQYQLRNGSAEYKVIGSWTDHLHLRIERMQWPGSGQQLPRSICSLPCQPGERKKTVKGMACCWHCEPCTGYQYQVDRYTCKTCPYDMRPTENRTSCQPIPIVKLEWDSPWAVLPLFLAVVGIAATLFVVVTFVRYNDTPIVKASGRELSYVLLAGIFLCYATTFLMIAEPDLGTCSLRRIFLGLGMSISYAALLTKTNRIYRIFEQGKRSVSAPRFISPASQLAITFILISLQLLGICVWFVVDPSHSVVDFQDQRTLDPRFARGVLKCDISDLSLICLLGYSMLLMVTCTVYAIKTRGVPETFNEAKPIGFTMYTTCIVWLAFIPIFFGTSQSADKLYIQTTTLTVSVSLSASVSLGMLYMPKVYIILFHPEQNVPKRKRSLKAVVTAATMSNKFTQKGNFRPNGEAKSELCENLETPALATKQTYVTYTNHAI
# At least one compound was matched to its structure with a doubt left.
# Molecular target: T1, mGluR4 variant (Rattus norvegicus, UniProt P31423)
# T1 construct: A full-length cDNA of a novel mGluR4 variant was amplified again by a RT-PCR method; V5-His (only in the cloning vector's name); expressed in transfected cells
# Assay: Measurement of function of mGluR4 variant gene by cAMP measurement in variant expressing CHO-K1 cells
# Format: cell-based
# Settings: combined treatment with IBMX 100 μM and forskolin 10 μM; 10 minutes at 37° C.
# Procedure: The prepared vector (pcDNA3.1E) was introduced in CHO-K1 cell (Dainippon Pharmaceutical Co., Ltd.) by using polyFect reagent (Qiagen). After 48 hours, neomycin (600 μg/ml) was added to a culture medium (Modified Eagle Medium (αMEM) containing 10% fetal bovine serum, 100 U/ml penicillin; Nacalai Tesque) and cultivation was continued for 2 to 3 weeks to perform screening of gene-introduced cells.
# The variant expressing cells obtained as described above were dispensed to 2.5×10^5 cells/well on a plate (24-well) and cultivated for 20 hours and then used for the measurement of the function of cAMP. Each plate was washed well with Dulbeco's phosphate buffer and incubated for 20 minutes. Thereafter, stimulation was performed with each drug for 10 minutes at 37° C. After the stimulation, the cells were at once treated with ice-cooled 2.5% perchloric acid (PCA) for 30 minutes, neutralized with KOH, and centrifuged to obtain a supernatant (12,000 rpm×10 min, 4° C.). The cAMP content of the supernatant was determined according to a conventional enzyme immunoassay (ELISA) by using a cAMP assay kit (Amersham).
structure (smiles),measurement,value
C=C[C@@]1(C)CC(=O)[C@]2(O)[C@@]3(C)[C@@H](O)CCC(C)(C)[C@@H]3[C@H](O)[C@H](OC(C)=O)[C@@]2(C)O1 [forskolin],increase of the amount of cAMP in the mGluR4 variant expressing cell,about 9 folds
